Measured values as given in paper doi:10.1101/2021.12.29.474426.
No constants are given. Whether binding was seen depends on the method and setting. In cells and extracts the contact can be indirect. For part of these data: Binding can be weak; no strength is given.

Columns and labels:
Assay in all cases: pull-down
[1] = molecular target: GST-ENDΔα1 (END domain α1-helix deletion mutant fused to GST) (Epstein-Barr virus)
[2] = molecular target: GST-END-H15A (END domain H15A missense mutant fused to GST) (Epstein-Barr virus)
[3] = molecular target: GST-END (wild type EBNA2 N-terminal dimerization domain fused to GST) (Epstein-Barr virus)

B1: early B cell factor (EBF) 1 (protein, UniProt Q9UH73 1-591)
chain: MFGIQESIQRSGSSMKEEPLGSGMNAVRTWMQGAGVLDANTAAQSGVGLARAHFEKQPPSNLRKSNFFHFVLALYDRQGQPVEIERTAFVGFVEKEKEANSEKTNNGIHYRLQLLYSNGIRTEQDFYVRLIDSMTKQAIVYEGQDKNPEMCRVLLTHEIMCSRCCDKKSCGNRNETPSDPVIIDRFFLKFFLKCNQNCLKNAGNPRDMRRFQVVVSTTVNVDGHVLAVSDNMFVHNNSKHGRRARRLDPSEGTPSYLEHATPCIKAISPSEGWTTGGATVIIIGDNFFDGLQVIFGTMLVWSELITPHAIRVQTPPRHIPGVVEVTLSYKSKQFCKGTPGRFIYTALNEPTIDYGFQRLQKVIPRHPGDPERLPKEVILKRAADLVEALYGMPHNNQEIILKRAADIAEALYSVPRNHNQLPALANTSVHAGMMGVNSFSGQLAVNVSEASQATNQGFTRNSSSVSPHGYVPSTTPQQTNYNSVTTSMNGYGSAAMSNLGGSPTFLNGSAANSPYAIVPSSPTMASSTSLPSNCSSSSGIFSFSPANMVSAVKQKSAFAPVVRPQTSPPPTCTSTNGNSLQAISGMIVPPM
With B1 the binding [1] was “no binding”, the binding [2] was “binds” and the binding [3] was “binds”.
